Assay results: paper doi:10.1101/299586
Results are given in words; binding and its absence hold for the method and conditions named. Binding seen in cells or lysates may run through a third protein. Some entries that bind do so weakly or less than the wild type.

Protein sequences, listed by entry. Tags and fused reporters are not part of them. Residues count along the entry.
UniProt Q92673, residues 82-2214: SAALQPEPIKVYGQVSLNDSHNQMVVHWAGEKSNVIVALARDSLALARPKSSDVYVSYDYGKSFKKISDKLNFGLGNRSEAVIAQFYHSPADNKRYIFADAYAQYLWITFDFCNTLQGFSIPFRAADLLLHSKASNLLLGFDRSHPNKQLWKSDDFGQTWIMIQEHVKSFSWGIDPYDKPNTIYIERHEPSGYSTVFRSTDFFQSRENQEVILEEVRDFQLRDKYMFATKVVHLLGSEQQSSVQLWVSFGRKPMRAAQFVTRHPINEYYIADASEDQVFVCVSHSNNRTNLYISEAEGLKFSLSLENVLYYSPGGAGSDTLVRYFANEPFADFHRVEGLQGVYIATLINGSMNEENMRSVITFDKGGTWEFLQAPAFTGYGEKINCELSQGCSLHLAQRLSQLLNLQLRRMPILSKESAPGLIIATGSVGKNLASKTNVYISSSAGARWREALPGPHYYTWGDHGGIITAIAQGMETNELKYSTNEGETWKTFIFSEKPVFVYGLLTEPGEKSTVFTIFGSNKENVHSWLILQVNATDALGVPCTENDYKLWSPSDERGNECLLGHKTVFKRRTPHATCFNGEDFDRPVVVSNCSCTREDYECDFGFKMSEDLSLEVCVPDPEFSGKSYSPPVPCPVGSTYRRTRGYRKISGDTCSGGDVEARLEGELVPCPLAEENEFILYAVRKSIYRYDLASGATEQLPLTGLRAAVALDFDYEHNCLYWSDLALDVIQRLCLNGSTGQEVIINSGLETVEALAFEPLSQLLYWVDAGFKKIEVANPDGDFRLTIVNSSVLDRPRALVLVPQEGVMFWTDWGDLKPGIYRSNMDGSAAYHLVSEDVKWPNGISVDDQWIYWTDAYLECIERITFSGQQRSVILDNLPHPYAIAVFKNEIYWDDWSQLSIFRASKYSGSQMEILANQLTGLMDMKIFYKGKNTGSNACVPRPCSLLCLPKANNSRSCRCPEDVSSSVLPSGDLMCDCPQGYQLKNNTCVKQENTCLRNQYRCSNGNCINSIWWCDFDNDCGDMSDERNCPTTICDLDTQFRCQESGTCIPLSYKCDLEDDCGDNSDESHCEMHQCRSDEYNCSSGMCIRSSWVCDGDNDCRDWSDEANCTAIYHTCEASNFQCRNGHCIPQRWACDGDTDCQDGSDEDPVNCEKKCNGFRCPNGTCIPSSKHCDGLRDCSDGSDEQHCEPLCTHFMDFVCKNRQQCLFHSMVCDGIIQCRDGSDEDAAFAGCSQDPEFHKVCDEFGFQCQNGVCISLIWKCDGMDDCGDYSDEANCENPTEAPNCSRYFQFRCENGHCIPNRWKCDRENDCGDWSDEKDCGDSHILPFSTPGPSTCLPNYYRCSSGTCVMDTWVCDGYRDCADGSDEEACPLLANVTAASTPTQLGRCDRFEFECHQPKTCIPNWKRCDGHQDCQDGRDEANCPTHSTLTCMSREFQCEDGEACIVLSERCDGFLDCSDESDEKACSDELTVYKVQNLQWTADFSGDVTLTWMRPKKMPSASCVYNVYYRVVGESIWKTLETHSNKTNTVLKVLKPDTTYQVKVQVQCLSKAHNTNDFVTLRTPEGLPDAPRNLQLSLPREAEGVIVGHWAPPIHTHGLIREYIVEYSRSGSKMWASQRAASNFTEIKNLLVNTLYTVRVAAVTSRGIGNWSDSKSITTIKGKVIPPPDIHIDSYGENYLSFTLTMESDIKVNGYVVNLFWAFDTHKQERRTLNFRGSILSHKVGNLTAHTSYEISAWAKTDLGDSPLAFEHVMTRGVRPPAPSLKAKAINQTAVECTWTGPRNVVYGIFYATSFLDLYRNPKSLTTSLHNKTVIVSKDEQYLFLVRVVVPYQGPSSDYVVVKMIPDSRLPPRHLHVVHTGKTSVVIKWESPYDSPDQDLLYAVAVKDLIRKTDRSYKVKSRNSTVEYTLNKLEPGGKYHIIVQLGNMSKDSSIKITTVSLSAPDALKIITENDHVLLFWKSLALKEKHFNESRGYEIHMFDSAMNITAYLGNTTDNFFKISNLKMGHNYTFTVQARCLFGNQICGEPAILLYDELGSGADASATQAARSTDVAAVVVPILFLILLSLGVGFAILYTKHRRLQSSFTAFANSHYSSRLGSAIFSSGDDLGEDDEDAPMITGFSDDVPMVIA

Experiments:
[1] = target: full-length SORLA-GFP (UniProt Q92673); assay: co-IP
[2] = target: Human epidermal growth factor receptor 2 (HER2), endogenous (human (endogenous in MDA-MB-361 and BT474)) (UniProt P04626); assay: co-IP

Row | binding [1] | binding [2] | Substance
1 | binds | – | Human epidermal growth factor receptor 2 (HER2), endogenous (from UniProt P04626 23-1255)
2 | – | binds | Sortilin related receptor 1 (SORLA), endogenous (from UniProt Q92673 82-2214)
